# Assay results: the supplement of paper PMC10032668
# The chains behind the UniProt entries cited, without tags or fusion partners.
# ANXA11, P50995, UniProt P50995, whole entry: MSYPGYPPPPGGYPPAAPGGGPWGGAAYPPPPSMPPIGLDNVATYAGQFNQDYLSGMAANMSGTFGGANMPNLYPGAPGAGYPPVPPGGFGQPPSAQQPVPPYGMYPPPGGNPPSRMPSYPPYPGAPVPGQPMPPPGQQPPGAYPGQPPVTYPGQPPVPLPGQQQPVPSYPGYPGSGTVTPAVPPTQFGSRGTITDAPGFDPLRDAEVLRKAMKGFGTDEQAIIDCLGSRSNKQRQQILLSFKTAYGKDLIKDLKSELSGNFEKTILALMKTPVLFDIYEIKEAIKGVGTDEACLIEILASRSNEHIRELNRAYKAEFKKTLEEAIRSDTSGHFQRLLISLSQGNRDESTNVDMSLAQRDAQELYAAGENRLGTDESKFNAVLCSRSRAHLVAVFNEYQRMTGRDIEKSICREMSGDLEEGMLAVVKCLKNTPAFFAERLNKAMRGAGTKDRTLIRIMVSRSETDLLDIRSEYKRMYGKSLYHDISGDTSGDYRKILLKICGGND
# DUSP12, Q9UNI6, UniProt Q9UNI6, whole entry: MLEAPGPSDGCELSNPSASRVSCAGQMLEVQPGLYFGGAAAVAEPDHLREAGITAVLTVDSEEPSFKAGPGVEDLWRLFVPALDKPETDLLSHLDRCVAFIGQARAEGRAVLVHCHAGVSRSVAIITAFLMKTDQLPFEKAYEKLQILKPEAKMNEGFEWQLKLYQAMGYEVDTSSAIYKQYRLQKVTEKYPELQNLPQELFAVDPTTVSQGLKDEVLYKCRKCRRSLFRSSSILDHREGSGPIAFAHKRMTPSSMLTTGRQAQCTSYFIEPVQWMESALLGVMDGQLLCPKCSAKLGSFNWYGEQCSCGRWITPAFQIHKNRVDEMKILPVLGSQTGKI
# GSN, P06396, UniProt P06396, whole entry: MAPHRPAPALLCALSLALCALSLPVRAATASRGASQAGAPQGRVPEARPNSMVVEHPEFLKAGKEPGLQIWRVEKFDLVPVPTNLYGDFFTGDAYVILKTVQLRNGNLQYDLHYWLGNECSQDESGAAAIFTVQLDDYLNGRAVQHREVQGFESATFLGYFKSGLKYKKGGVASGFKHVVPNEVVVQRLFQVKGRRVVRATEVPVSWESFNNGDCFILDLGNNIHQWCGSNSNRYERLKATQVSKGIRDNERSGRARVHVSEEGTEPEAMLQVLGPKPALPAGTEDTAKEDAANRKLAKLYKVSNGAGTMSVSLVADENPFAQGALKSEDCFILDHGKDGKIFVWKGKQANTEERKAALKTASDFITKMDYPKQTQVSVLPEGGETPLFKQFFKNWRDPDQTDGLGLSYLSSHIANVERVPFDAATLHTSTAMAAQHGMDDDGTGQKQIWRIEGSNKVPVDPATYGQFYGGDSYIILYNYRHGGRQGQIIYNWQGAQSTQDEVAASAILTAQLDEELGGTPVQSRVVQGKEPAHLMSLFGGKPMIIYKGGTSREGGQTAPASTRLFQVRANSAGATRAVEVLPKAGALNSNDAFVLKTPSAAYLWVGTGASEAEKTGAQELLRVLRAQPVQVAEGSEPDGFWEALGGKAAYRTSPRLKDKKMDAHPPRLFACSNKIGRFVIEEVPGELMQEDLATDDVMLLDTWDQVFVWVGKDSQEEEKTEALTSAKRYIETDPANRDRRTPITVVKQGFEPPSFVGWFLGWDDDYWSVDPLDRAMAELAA
# MED12, Q93074, UniProt Q93074, whole entry: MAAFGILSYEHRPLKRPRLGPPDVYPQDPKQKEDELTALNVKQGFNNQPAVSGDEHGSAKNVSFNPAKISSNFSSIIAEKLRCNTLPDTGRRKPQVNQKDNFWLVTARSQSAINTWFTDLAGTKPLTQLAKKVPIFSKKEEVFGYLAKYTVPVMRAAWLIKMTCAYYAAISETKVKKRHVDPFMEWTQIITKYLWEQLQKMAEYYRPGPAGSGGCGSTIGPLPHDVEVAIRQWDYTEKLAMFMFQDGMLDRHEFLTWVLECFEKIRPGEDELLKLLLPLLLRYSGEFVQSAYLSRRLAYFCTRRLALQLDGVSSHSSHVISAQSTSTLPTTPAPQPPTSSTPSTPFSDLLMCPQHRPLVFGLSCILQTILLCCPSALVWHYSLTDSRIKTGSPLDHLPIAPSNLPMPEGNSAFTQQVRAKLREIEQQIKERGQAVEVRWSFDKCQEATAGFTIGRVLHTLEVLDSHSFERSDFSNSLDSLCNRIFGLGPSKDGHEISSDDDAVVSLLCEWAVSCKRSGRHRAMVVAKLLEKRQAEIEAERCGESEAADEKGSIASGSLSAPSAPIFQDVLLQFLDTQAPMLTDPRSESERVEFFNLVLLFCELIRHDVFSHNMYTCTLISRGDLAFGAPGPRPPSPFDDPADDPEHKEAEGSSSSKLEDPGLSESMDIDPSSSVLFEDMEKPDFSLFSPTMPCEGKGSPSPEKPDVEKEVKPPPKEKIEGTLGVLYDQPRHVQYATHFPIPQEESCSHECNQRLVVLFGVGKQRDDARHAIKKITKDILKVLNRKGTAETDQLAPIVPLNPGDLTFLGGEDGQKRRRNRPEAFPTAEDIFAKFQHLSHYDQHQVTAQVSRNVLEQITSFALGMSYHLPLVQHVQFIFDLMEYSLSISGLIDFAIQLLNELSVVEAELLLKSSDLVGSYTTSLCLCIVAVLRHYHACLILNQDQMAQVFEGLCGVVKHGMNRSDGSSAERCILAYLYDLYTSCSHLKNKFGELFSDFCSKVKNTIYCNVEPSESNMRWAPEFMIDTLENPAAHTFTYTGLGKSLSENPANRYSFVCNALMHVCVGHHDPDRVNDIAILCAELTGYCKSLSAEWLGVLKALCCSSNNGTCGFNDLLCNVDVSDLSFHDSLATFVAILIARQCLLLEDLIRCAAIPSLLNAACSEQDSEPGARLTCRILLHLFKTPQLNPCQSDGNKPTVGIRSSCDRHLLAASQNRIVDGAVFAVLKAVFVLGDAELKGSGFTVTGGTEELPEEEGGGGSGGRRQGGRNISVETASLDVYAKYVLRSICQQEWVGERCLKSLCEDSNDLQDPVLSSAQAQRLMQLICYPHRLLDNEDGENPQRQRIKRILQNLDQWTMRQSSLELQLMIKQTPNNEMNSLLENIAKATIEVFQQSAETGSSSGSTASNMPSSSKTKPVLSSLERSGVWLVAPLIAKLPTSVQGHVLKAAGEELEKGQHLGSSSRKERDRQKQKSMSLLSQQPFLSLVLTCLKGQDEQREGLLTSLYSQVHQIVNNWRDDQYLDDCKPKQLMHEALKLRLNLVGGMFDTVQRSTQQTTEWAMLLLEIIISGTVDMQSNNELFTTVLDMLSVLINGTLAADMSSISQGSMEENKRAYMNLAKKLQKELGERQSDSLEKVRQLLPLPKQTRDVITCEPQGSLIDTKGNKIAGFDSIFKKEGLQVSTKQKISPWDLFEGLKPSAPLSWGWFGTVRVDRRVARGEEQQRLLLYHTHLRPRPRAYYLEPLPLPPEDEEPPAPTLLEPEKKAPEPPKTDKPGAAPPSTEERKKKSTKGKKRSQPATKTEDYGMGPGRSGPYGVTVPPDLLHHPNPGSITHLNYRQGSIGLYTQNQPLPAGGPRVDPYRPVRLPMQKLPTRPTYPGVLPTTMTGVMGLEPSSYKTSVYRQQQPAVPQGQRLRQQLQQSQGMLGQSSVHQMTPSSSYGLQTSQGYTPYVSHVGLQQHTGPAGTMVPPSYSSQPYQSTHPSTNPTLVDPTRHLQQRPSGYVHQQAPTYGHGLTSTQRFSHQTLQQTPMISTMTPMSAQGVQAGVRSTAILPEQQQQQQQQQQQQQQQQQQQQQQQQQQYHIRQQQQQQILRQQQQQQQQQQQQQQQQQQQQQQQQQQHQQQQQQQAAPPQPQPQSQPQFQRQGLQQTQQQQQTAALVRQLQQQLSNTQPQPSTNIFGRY
# NDUFB4, O95168, UniProt O95168, whole entry: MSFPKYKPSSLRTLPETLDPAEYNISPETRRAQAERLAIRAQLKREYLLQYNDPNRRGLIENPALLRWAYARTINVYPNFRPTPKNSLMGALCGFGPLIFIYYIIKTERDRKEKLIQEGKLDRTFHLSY
# TUBB8, Q3ZCM7, UniProt Q3ZCM7, whole entry: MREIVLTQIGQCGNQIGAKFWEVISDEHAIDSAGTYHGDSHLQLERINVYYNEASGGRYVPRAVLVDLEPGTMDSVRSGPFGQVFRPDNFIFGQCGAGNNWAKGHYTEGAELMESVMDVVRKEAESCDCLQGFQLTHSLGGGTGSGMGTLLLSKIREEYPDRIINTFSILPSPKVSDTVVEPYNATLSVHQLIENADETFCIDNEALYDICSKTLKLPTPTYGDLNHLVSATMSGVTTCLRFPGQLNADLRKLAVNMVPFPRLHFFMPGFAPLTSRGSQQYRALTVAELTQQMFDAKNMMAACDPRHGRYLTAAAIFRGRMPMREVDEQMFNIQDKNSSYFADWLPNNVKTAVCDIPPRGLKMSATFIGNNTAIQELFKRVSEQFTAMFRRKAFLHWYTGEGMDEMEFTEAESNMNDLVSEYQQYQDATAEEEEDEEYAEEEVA
# Some of the results follow. Only hits are listed; about a third recur on repeated control peptides.
# B1: GAS5 (peptide)
# chain: VWLWIAPYGQLCPQG
# B2: SNHG6 (peptide)
# chain: MPVWWRRRRLRARSW
# B3: SNHG6 (peptide)
# chain: RRLRARSWALRGARK
# B4: RNF10 (peptide)
# chain: ATAAPLRLGGASRRV
# What was measured:
# Test in all cases: PRISMA enrichment of interactor (LFQ) in peptide spot vs all other peptide spots (log2 fold change); higher = stronger / more specific binding of the interactor to the peptide
# ANXA11, P50995 = biological target: ANXA11, P50995
# Description: (§1)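 PRISMA: 15-aa overlapping tiles (offset 8 aa) of 60 microproteins, plus SOS1/GLUT1 control peptides, were spot-synthesized on cellulose membranes in triplicate. Membranes were incubated with benzonase-treated HEK293T lysate, and bound proteins were identified by LC-MS/MS with LFQ. Enrichment is the log2 fold change of each protein in one spot versus all other spots. Only interactors passing the significance cutoff are listed.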
# DAZAP1, Q96EP5 = biological target: DAZAP1, Q96EP5
# Description: as §1
# DDX5, P17844 = biological target: DDX5, P17844
# Description: as §1
# DERPC, P0CG12 = biological target: DERPC, P0CG12
# Description: as §1
# EWSR1, Q01844 = biological target: EWSR1, Q01844
# Description: as §1
# G3BP2, Q9UN86 = biological target: G3BP2, Q9UN86
# Description: as §1
# LSM12, Q3MHD2 = biological target: LSM12, Q3MHD2
# Description: as §1
# MAPK1IP1L, Q8NDC0 = biological target: MAPK1IP1L, Q8NDC0
# Description: as §1
# MARK2, Q7KZI7 = biological target: MARK2, Q7KZI7
# Description: as §1
# MRPL3, P09001 = biological target: MRPL3, P09001
# Description: as §1
# SFXN2, Q96NB2 = biological target: SFXN2, Q96NB2
# Description: as §1
# ANXA5, P08758 = biological target: ANXA5, P08758
# Description: as §1
# DUSP12, Q9UNI6 = biological target: DUSP12, Q9UNI6
# Description: as §1
# GTF2E2, P29084 = biological target: GTF2E2, P29084
# Description: as §1
# KIF1A, Q12756 = biological target: KIF1A, Q12756
# Description: as §1
# PAXBP1, Q9Y5B6 = biological target: PAXBP1, Q9Y5B6
# Description: as §1
# HOMER3, Q9NSC5 = biological target: HOMER3, Q9NSC5
# Description: as §1
# MED14, O60244 = biological target: MED14, O60244
# Description: as §1
# NAP1L1, P55209 = biological target: NAP1L1, P55209
# Description: as §1
# NUCKS1, Q9H1E3 = biological target: NUCKS1, Q9H1E3
# Description: as §1
# OLA1, Q9NTK5 = biological target: OLA1, Q9NTK5
# Description: as §1
# RNF213, Q63HN8 = biological target: RNF213, Q63HN8
# Description: as §1
# YTHDC2, Q9H6S0 = biological target: YTHDC2, Q9H6S0
# Description: as §1
# BMS1, Q14692 = biological target: BMS1, Q14692
# Description: as §1
# CFAP20, Q9Y6A4 = biological target: CFAP20, Q9Y6A4
# Description: as §1
# CIP2A, Q8TCG1 = biological target: CIP2A, Q8TCG1
# Description: as §1
# DHX57, Q6P158 = biological target: DHX57, Q6P158
# Description: as §1
# GNPDA1, P46926 = biological target: GNPDA1, P46926
# Description: as §1
# GSN, P06396 = biological target: GSN, P06396
# Description: as §1
# HSD17B10, Q99714 = biological target: HSD17B10, Q99714
# Description: as §1
# KIFC1, Q9BW19 = biological target: KIFC1, Q9BW19
# Description: as §1
# MED12, Q93074 = biological target: MED12, Q93074
# Description: as §1
# MRPL18, Q9H0U6 = biological target: MRPL18, Q9H0U6
# Description: as §1
# MRPL34, Q9BQ48 = biological target: MRPL34, Q9BQ48
# Description: as §1
# NAE1, Q13564 = biological target: NAE1, Q13564
# Description: as §1
# NDUFB4, O95168 = biological target: NDUFB4, O95168
# Description: as §1
# SRSF5, Q13243 = biological target: SRSF5, Q13243
# Description: as §1
# TUBB8, Q3ZCM7 = biological target: TUBB8, Q3ZCM7
# Description: as §1
binder,measurement,setting,value
B1,PRISMA enrichment of interactor (log2),"ANXA11, P50995",4.53
same,PRISMA enrichment of interactor (log2),"DAZAP1, Q96EP5",4.66
same,PRISMA enrichment of interactor (log2),"DDX5, P17844",4.54
same,PRISMA enrichment of interactor (log2),"DERPC, P0CG12",4.38
same,PRISMA enrichment of interactor (log2),"EWSR1, Q01844",5.78
same,PRISMA enrichment of interactor (log2),"G3BP2, Q9UN86",5.35
same,PRISMA enrichment of interactor (log2),"LSM12, Q3MHD2",5.21
same,PRISMA enrichment of interactor (log2),"MAPK1IP1L, Q8NDC0",6.49
same,PRISMA enrichment of interactor (log2),"MARK2, Q7KZI7",5.03
same,PRISMA enrichment of interactor (log2),"MRPL3, P09001",4.64
same,PRISMA enrichment of interactor (log2),"SFXN2, Q96NB2",5.82
B2,PRISMA enrichment of interactor (log2),"ANXA5, P08758",4.82
same,PRISMA enrichment of interactor (log2),"DUSP12, Q9UNI6",4.18
same,PRISMA enrichment of interactor (log2),"GTF2E2, P29084",5.71
same,PRISMA enrichment of interactor (log2),"KIF1A, Q12756",4.67
same,PRISMA enrichment of interactor (log2),"PAXBP1, Q9Y5B6",4.26
B3,PRISMA enrichment of interactor (log2),"ANXA5, P08758",4.4
same,PRISMA enrichment of interactor (log2),"HOMER3, Q9NSC5",4.2
same,PRISMA enrichment of interactor (log2),"MED14, O60244",3.77
same,PRISMA enrichment of interactor (log2),"NAP1L1, P55209",4.38
same,PRISMA enrichment of interactor (log2),"NUCKS1, Q9H1E3",4.45
same,PRISMA enrichment of interactor (log2),"OLA1, Q9NTK5",4.86
same,PRISMA enrichment of interactor (log2),"RNF213, Q63HN8",5.76
same,PRISMA enrichment of interactor (log2),"YTHDC2, Q9H6S0",4.48
B4,PRISMA enrichment of interactor (log2),"ANXA5, P08758",5.29
same,PRISMA enrichment of interactor (log2),"BMS1, Q14692",6.85
same,PRISMA enrichment of interactor (log2),"CFAP20, Q9Y6A4",6.04
same,PRISMA enrichment of interactor (log2),"CIP2A, Q8TCG1",10.2
same,PRISMA enrichment of interactor (log2),"DHX57, Q6P158",4.82
same,PRISMA enrichment of interactor (log2),"GNPDA1, P46926",4.85
same,PRISMA enrichment of interactor (log2),"GSN, P06396",3.74
same,PRISMA enrichment of interactor (log2),"HSD17B10, Q99714",5.81
same,PRISMA enrichment of interactor (log2),"KIFC1, Q9BW19",4.05
same,PRISMA enrichment of interactor (log2),"MED12, Q93074",5.51
same,PRISMA enrichment of interactor (log2),"MRPL18, Q9H0U6",4.41
same,PRISMA enrichment of interactor (log2),"MRPL34, Q9BQ48",6.61
same,PRISMA enrichment of interactor (log2),"NAE1, Q13564",4.53
same,PRISMA enrichment of interactor (log2),"NDUFB4, O95168",5.11
same,PRISMA enrichment of interactor (log2),"SRSF5, Q13243",10
same,PRISMA enrichment of interactor (log2),"TUBB8, Q3ZCM7",4.88

# Reformatted as tab-separated lines: part of the list above
binder	measurement	setting	value
B4	PRISMA enrichment of interactor (log2)	NDUFB4, O95168	5.11
same	PRISMA enrichment of interactor (log2)	SRSF5, Q13243	10
